From article PMC7145576 come the findings set out here.

For at least one entry, the source does not settle the construct or the ends of the probe.

This series relates to PLE RepA. Kind of series: EMSA. Particulars: 10 mM Mg2+, poly(dI-dC) competitor; EMSA: 80 nM probe, 10 mM HEPES pH 7.8, 10% glycerol, 1 uM TCEP, 10 mM MgCl2, 0.4 ug poly(dI-dC) in 20 ul, 30 C 20 min; 8% acrylamide 0.5x Tris-borate gel; recombinant protein; protein details: N-terminal His6-SUMO, cleaved with SUMO protease. For orientation: Mobility shift assays separate free from complexed probe on a gel.

Take “TTTATATGGATGATTTTCAACCCTATAAA (double strand) [repeat 3 (R3) probe]”: the binding result was “binds”.
